Measured values reported in patent US8580258.
Where a chain is given by its changes, count along the chain named. Results are given in words; binding and its absence hold for the method and conditions named. Some results given as binding are weak or reduced against the parent protein; the word gives no strength. Tags and fused reporters may be left off the sequences shown. Values belong to the binder of their own block, whether it stands above or below them.

By UniProt entry, the sequences of proteins in these tests, tags left out. Residues count along the entry.
UniProt P32004, residues 20-1120: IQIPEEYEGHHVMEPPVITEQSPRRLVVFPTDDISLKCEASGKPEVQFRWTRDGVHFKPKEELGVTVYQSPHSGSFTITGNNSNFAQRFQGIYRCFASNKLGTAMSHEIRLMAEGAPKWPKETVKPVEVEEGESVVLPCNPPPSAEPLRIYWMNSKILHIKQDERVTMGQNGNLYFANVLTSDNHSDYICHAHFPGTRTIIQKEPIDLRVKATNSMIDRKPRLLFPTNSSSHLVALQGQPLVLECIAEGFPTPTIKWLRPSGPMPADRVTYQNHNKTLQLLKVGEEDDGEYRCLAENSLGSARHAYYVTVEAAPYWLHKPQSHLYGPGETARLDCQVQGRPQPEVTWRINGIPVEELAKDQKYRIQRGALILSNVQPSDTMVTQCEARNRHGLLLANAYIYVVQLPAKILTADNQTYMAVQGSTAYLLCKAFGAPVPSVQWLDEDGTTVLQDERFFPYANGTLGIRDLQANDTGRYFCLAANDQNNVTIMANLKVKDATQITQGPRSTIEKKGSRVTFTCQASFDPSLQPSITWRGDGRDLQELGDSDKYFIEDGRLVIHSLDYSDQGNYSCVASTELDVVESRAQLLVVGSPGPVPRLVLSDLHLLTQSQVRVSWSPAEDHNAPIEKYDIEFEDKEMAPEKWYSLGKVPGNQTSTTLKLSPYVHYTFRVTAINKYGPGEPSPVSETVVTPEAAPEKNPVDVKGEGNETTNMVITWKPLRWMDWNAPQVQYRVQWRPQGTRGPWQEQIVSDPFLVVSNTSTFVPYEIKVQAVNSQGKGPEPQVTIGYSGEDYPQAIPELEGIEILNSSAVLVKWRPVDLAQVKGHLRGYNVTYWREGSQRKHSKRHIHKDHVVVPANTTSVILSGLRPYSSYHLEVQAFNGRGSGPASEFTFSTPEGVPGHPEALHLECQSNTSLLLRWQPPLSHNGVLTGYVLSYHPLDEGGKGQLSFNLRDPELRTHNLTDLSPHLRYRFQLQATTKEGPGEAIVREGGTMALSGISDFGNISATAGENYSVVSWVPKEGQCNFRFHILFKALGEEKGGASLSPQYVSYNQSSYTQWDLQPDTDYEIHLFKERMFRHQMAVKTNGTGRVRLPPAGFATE

How the values were obtained:
[1] = biological target: recombinant L1-Fc fusion protein (human L1-Fc protein comprising the ectodomain of L1) (human) (UniProt P32004); assay: ELISA, L1-Fc coated at 5 ug/ml, bacterial supernatant, anti-human kappa HRP
[2] = biological target: recombinant L1-Fc fusion protein (human L1-Fc protein comprising the ectodomain of L1) (human) (UniProt P32004); assay: ELISA, plate coated with L1-Fc at 5 µg/ml, bacterial supernatants of 8 clones, anti-human kappa HRP conjugate, TMB
[3] = biological target: recombinant L1-Fc fusion protein (human L1-Fc protein comprising the ectodomain of L1) (human) (UniProt P32004); assay: ELISA, L1-Fc coated, bacterial supernatant, anti-human kappa HRP

binding [1]: binds | binding [2]: binds | binding [3]: binds
B1: L1-9.3Hu single chain antibody (humanized L1-9.3Hu scFv fused to human c kappa constant region) (scFv)
scFv: DIQMTQSPSSLSASVGDRVTITCRASQDISNYLNWYQQKPGKAPKLLIYYTSRLHSGVPSRFSGSGSGTDYTFTISSLQPEDFATYFCQQGNTLPWTFGGGTKLEIKRTSGPGDGGKGGPGKGPGGEGTKGTGPGGEVQLVQSGGGLVQSGGSLRLSCRASGYTFTRYWMLWVRQRPGHGLEWVGEINPRNDRTNYNEKFKTRFTISVDRSKSTAYLQMDSLRAEDTAVYFCALGGGYAMDYWGQGTLVTVSSGGAAAAPSVFIFPPSDEQLKSGTASVVCLLNNFYPREAKVQWKVDNALQSGNSQESVTEQDSKDSTYSLSSTLTLSKADYEKHKVYACEVTHQGLSSPVTKSFNRGESHHHHHH

binding [1]: binds | binding [2]: binds | binding [3]: binds
B2: L1-9.3Hu3 single chain antibody (humanized L1-9.3Hu3 scFv fused to human c kappa constant region) (scFv)
scFv: B1 scFv with F73L, H179K, G185A, S213N, A215L

binding [1]: binds | binding [2]: binds | binding [3]: binds
B3: L1-9.3 single chain antibody (murine L1-9.3 scFv fused to human c kappa constant region) (scFv)
scFv: DIQMTQTTSSLSAFLGDRVTISCRASQDISNYLNWYQQKPDGTVKLLIYYTSRLHSGVPSRFSGSGSGTDYSLTISNLEQEDFATYFCQQGNTLPWTFGGGTKLEIKRTSGPGDGGKGGPGKGPGGEGTKGTGPGGQVQLQQPGAELVKSGASVNLSCRASGYTFTRYWMLWVRQRPGHGLEWVGEINPRNDRTNYNEKFKTKATLTVDRSSSTAYMQLTSLTSEDSAVYFCALGGGYAMDYWGQGTSVTVSSGGAAAAPSVFIFPPSDEQLKSGTASVVCLLNNFYPREAKVQWKVDNALQSGNSQESVTEQDSKDSTYSLSSTLTLSKADYEKHKVYACEVTHQGLSSPVTKSFNRGESHHHHHH
